The list does not hold the whole screen: it is rich in T/C values a quarter to a half above the control, in often repeated tests (any T/C) and in doses without a T/C. Further doses and runs are listed elsewhere. T/C: endpoint of the treated group in % of that of the vehicle group. Some entries give survivors of the animals treated and no T/C: the source holds a T/C of zero for them, seemingly a mark for toxic or unscored doses. Some survivor counts are full or nearly so, which does not show that the dose was tolerated: the source hardly ever lists a survival T/C far under the control, and the zero likely stands for such cases as well. Survivors were counted at the toxicity check, usually on the fifth day, unless a day is given; later deaths do not show. Schedule codes are those of the source, taken here to give the interval after Q, in days (D) or hours (H), and the number of doses after X. Some entries were tested several times; the results are listed from low to high. Signs of the kind (2×) stand for listed records that agree. Where survival is the endpoint, the PubChem record calls one and a half times the control and up active, and a quarter to a half above the control has no call in these data; cut-offs in other NCI protocols can differ. Some T/C values carry the count of animals alive at the toxicity check (mostly the fifth day); without a count, all were alive then.
Tested on: P388 leukemia ip, CD2F1 mice, survival T/C
Test: NCI In Vivo Anticancer Drug Screen. Data for tumor model P388 Leukemia (intraperitoneal) in CD2F1 (CDF1) mice
Conditions: T/C endpoint: median survival time, higher T/C = longer survival
[1] = dose: 50.0 mg/kg/injection, schedule: Q01DX009 (ip), vehicle: Klucel (hydroxypropylcellulose) (HPC)
[2] = dose: 100.0 mg/kg/injection, schedule: Q01DX009 (ip), vehicle: Klucel (hydroxypropylcellulose) (HPC)
[3] = dose: 200.0 mg/kg/injection, schedule: Q01DX005 (ip), vehicle: Klucel (hydroxypropylcellulose) (HPC)
[4] = dose: 200.0 mg/kg/injection, schedule: Q01DX009 (ip), vehicle: Klucel (hydroxypropylcellulose) (HPC)
[5] = dose: 400.0 mg/kg/injection, schedule: Q01DX005 (ip), vehicle: Klucel (hydroxypropylcellulose) (HPC)
[6] = dose: 400.0 mg/kg/injection, schedule: Q01DX009 (ip), vehicle: Klucel (hydroxypropylcellulose) (HPC)

Structure (SMILES): CN(Cc1cnc2nc(N)nc(N)c2n1)c1c(Cl)cc(C(=O)NC(CCC(=O)O)C(=O)O)cc1Cl (centres undefined)
- T/C (dose: 50.0 mg/kg/injection, schedule: Q01DX001 (ip), vehicle: Klucel (hydroxypropylcellulose) (HPC), evaluated on day 30): 97, 101, 105 [2 of 3 alive], 112, 115, 116, 121 (2×), 122, 123, 124, 125, 125 [5 of 6 alive], 126, 127, 128 (2×), 130, 133 (2×), 134 (2×), 135 (2×), 138, 147, 150 (2×), 155 % of control
- T/C (dose: 50.0 mg/kg/injection, schedule: Q01DX001 (ip), vehicle: Klucel (hydroxypropylcellulose) (HPC), evaluated on day 35): 112 % of control [5 of 6 alive]
- survivor count (dose: 50.0 mg/kg/injection, schedule: Q01DX001 (ip), vehicle: Klucel (hydroxypropylcellulose) (HPC)): 3 of 3 and 6 of 6
- T/C (dose: 50.0 mg/kg/injection, schedule: Q01DX005 (ip), vehicle: Klucel (hydroxypropylcellulose) (HPC), evaluated on day 30): 132, 144 [5 of 6 alive], 153, 159, 162, 163, 164, 168, 170, 171, 172 (2×), 173 (2×), 175, 176 (2×), 178, 182 (2×), 187, 191, 192 (2×), 194, 196, 197, 200 (2×), 205 [5 of 6 alive], 208, 211, 216 % of control
- T/C (dose: 50.0 mg/kg/injection, schedule: Q01DX005 (ip), vehicle: Klucel (hydroxypropylcellulose) (HPC), evaluated on day 35): 159 % of control
- survivor count (dose: 50.0 mg/kg/injection, schedule: Q01DX005 (ip), vehicle: Klucel (hydroxypropylcellulose) (HPC)): 3 of 3
- T/C (dose: 50.0 mg/kg/injection, schedule: Q01DX005 (iv), vehicle: suspension in saline): 137 % of control
- T/C [1]: 113, 125, 163, 169 (2×), 170, 177, 182, 190, 194, 199, 205, 206, 210, 211, 212, 214, 218, 222, 226 [5 of 6 alive], 230 (2×), 235, 236 (2×), 239, 245 (2×), 247, 249, 257, 273, 286 % of control
- survivor count [1]: 3 of 3 and 6 of 6
- T/C (dose: 50.0 mg/kg/injection, schedule: Q04DX002 (ip), vehicle: Klucel (hydroxypropylcellulose) (HPC)): 109 [5 of 6 alive], 112, 116 (2×), 121, 126, 127, 128 (2×), 133, 134 (2×), 136 (2×), 138, 141, 142, 143, 144, 145 (2×), 147 (4×), 148, 150, 153 (3×), 155 (2×), 156, 161 % of control (2×)
- T/C (dose: 50.0 mg/kg/injection, schedule: Q04DX003 (ip), vehicle: Klucel (hydroxypropylcellulose) (HPC), evaluated on day 30): 123, 125, 128, 130 [5 of 6 alive], 131, 133, 134, 135 (2×), 137 [5 of 6 alive], 140 (2×), 141, 142 (2×), 144, 146, 149, 152 (2×), 153, 154, 155, 156, 159, 160, 163 (2×), 165, 172, 175, 177 (2×), 178, 180 % of control
- T/C (dose: 50.0 mg/kg/injection, schedule: Q04DX003 (ip), vehicle: Klucel (hydroxypropylcellulose) (HPC), evaluated on day 35): 159 % of control
- T/C (dose: 100.0 mg/kg/injection, schedule: Q01DX001 (ip), vehicle: Klucel (hydroxypropylcellulose) (HPC), evaluated on day 30): 100, 108, 109, 110, 112, 122, 125 (2×), 127, 128, 129, 131, 132, 133 (3×), 135, 137, 139, 140, 141, 147, 150, 155 (3×), 156, 157 % of control (2×)
- T/C (dose: 100.0 mg/kg/injection, schedule: Q01DX001 (ip), vehicle: Klucel (hydroxypropylcellulose) (HPC), evaluated on day 35): 129 % of control
- survivor count (dose: 100.0 mg/kg/injection, schedule: Q01DX001 (ip), vehicle: Klucel (hydroxypropylcellulose) (HPC)): 3 of 3 and 6 of 6
- T/C (dose: 100.0 mg/kg/injection, schedule: Q01DX005 (ip), vehicle: Klucel (hydroxypropylcellulose) (HPC), evaluated on day 30): 92, 142, 152, 153, 158, 171 (2×), 173 [2 of 3 alive], 174 (2×), 176, 181 (2×), 182, 186, 192 (2×), 195 (2×), 199, 200, 203, 210, 210 [5 of 6 alive], 213, 214, 221, 235, 238 % of control
- T/C (dose: 100.0 mg/kg/injection, schedule: Q01DX005 (ip), vehicle: Klucel (hydroxypropylcellulose) (HPC), evaluated on day 35): 193 % of control
- survivor count (dose: 100.0 mg/kg/injection, schedule: Q01DX005 (ip), vehicle: Klucel (hydroxypropylcellulose) (HPC)): 3 of 3 and 6 of 6
- T/C [2]: 86, 86 [5 of 6 alive], 88 (2×), 92, 94, 96 [5 of 6 alive], 97, 98, 100 (2×), 101, 104, 106, 110, 113, 115, 171, 182, 185, 192, 201, 205, 208, 210, 223, 250, 261, 265 [2 of 3 alive], 285 % of control
- survivor count [2]: 5 of 6, 3 of 3, 6 of 6
- T/C (dose: 100.0 mg/kg/injection, schedule: Q04DX002 (ip), vehicle: Klucel (hydroxypropylcellulose) (HPC)): 121, 125 [5 of 6 alive], 128, 133, 134, 135 (2×), 137, 139, 141, 144, 146, 147 (3×), 148, 150 (2×), 151, 154 (4×), 155, 156, 157, 159, 162, 168, 171, 175 (2×), 176, 178, 179 % of control
- T/C (dose: 100.0 mg/kg/injection, schedule: Q04DX003 (ip), vehicle: Klucel (hydroxypropylcellulose) (HPC), evaluated on day 30): 132, 136, 137, 144 (2×), 145, 146 (2×), 149, 150 (2×), 151, 153, 157, 159, 160, 162, 163, 168, 169 (2×), 170, 171, 173, 176, 178, 180 (2×), 188 (3×), 189, 190, 194, 203 % of control
- T/C (dose: 100.0 mg/kg/injection, schedule: Q04DX003 (ip), vehicle: Klucel (hydroxypropylcellulose) (HPC), evaluated on day 35): 192 % of control
- T/C (dose: 200.0 mg/kg/injection, schedule: Q01DX001 (ip), vehicle: Klucel (hydroxypropylcellulose) (HPC), evaluated on day 30): 92, 112, 114, 115, 118, 126 (3×), 129, 131, 131 [2 of 3 alive], 133, 138, 145, 147, 148, 150 (4×), 157, 160, 163, 167, 169 (2×), 175, 184, 194 % of control
- T/C (dose: 200.0 mg/kg/injection, schedule: Q01DX001 (ip), vehicle: Klucel (hydroxypropylcellulose) (HPC), evaluated on day 35): 131 % of control [5 of 6 alive]
- survivor count (dose: 200.0 mg/kg/injection, schedule: Q01DX001 (ip), vehicle: Klucel (hydroxypropylcellulose) (HPC)): 3 of 3 and 6 of 6
- T/C [3]: 86 (2×), 92, 100, 165, 182, 194, 199, 201, 212, 220 [2 of 3 alive], 221 [5 of 6 alive], 222, 228, 240, 242 % of control
- survivor count [3]: 2 of 3, 5 of 6 (2×), 3 of 3, 6 of 6
- survivor count (dose: 200.0 mg/kg/injection, schedule: Q01DX005 (iv), vehicle: suspension in saline): 3 of 6
- T/C [4]: 87, 93, 96, 98, 105, 109, 114, 179 [5 of 6 alive], 192, 216 % of control
- survivor count [4]: 1 of 3, 3 of 6, 2 of 3, 4 of 6, 5 of 6 (2×), 3 of 3, 6 of 6
- T/C (dose: 200.0 mg/kg/injection, schedule: Q04DX002 (ip), vehicle: Klucel (hydroxypropylcellulose) (HPC)): 127, 138, 139 (2×), 147, 153, 156, 157, 158, 163 (2×), 166, 167, 169 (2×), 171, 172 (2×), 175, 178, 179, 180, 184, 191, 192, 196, 202, 205 (2×), 211, 218, 222 (2×), 235, 237 % of control
- T/C (dose: 200.0 mg/kg/injection, schedule: Q04DX003 (ip), vehicle: Klucel (hydroxypropylcellulose) (HPC), evaluated on day 30): 133 (2×), 153 (2×), 154 (2×), 155, 160, 161 (2×), 169, 172, 180, 181 (2×), 188, 189 (2×), 189 [5 of 6 alive], 191, 200, 203, 209, 210, 212, 212 [5 of 6 alive], 215, 217, 229, 241, 242, 243, 251, 257, 261 % of control
- T/C (dose: 200.0 mg/kg/injection, schedule: Q04DX003 (ip), vehicle: Klucel (hydroxypropylcellulose) (HPC), evaluated on day 35): 223 % of control
- T/C (dose: 400.0 mg/kg/injection, schedule: Q01DX001 (ip), vehicle: Klucel (hydroxypropylcellulose) (HPC), evaluated on day 30): 110, 110 [2 of 3 alive], 120, 123, 131 (2×), 140 (2×), 150 [5 of 6 alive], 160, 163, 167 (2×), 170, 172, 175, 176, 179, 180, 183, 185, 187 (2×), 189, 191, 196, 198, 203, 205 % of control
- T/C (dose: 400.0 mg/kg/injection, schedule: Q01DX001 (ip), vehicle: Klucel (hydroxypropylcellulose) (HPC), evaluated on day 35): 159 % of control
- survivor count (dose: 400.0 mg/kg/injection, schedule: Q01DX001 (ip), vehicle: Klucel (hydroxypropylcellulose) (HPC)): 5 of 6, 3 of 3, 6 of 6
- T/C [5]: 226 % of control
- survivor count [5]: 1 of 3, 2 of 6, 3 of 6, 2 of 3, 4 of 6 (2×), 5 of 6, 3 of 3, 6 of 6
- T/C [6]: 92 % of control [5 of 6 alive]
- survivor count [6]: 0 of 3, 1 of 3, 2 of 6, 3 of 6, 2 of 3, 4 of 6, 5 of 6 (2×), 3 of 3, 6 of 6
- T/C (dose: 400.0 mg/kg/injection, schedule: Q04DX002 (ip), vehicle: Klucel (hydroxypropylcellulose) (HPC)): 90, 114 [5 of 6 alive], 138, 157, 166, 166 [5 of 6 alive], 169, 171, 190 (2×), 191, 193, 195, 197, 203, 206, 206 [2 of 2 alive], 208, 211, 213, 215, 217, 218, 220, 223 (2×), 228, 230, 233, 239, 240 (2×), 243, 253, 265 % of control
- T/C (dose: 400.0 mg/kg/injection, schedule: Q04DX003 (ip), vehicle: Klucel (hydroxypropylcellulose) (HPC), evaluated on day 30): 118, 121, 123 [2 of 3 alive], 128, 139, 170, 171, 178, 182, 183, 185, 189, 193, 197 (3×), 200, 201, 206, 210, 216, 217, 229, 231, 236 (2×), 237, 247, 251, 252, 253, 254, 257, 265, 275 % of control
- T/C (dose: 400.0 mg/kg/injection, schedule: Q04DX003 (ip), vehicle: Klucel (hydroxypropylcellulose) (HPC), evaluated on day 35): 255 % of control
